# In PMC10163288:
# The list shows a part of the results.
# B1: il2ra_site2_3nfp_normal_mot_HHH_b1_00660_af2_000000090_0001_40_57_H_._HHH_b2_01407_0001_0000100004_0000001_0_af2pred_0001_1_af2pred_swapped (protein)
# chain: SSSSDEELRRLLEEAEELLERGNPEEARRVLRRAAHLAAELGDEEAFMELSKLLELVDRLLSSSS
# B2: il2ra_site2_3nfp_sap_16_mot_HHH_b1_01724_000000063_0001_41_55_H_._HHH_b2_00688_0001_0001100041_0000001_0_0001 (protein)
# chain: SSSSDKAERYVRAAIELAKLAAEDGDEEANEKALRLAELAAQDNRNPELEELVQELRELLESSSS
# B3: il2ra_site1_3nfp_sap_16_mot_HHH_b2_06400_af2_000000233_0001_43_56_H_._HHH_b1_04025_af2_0001_0000100004_0000001_0_0001 (protein)
# chain: PEEALRELLELARELGDEDVAEALEDVLERIEEGDPAAQWIALLLERLLRKLPPEEVIRHLRRAA
# B4: il2ra_site2_3nfp_normal_mot_HHH_b1_02962_000000041_0001_43_56_H_._HHH_b2_03422_0001_0000200036_0000001_0 (protein)
# chain: SSSSDEEVQREVEELLEEAKHIEDPEELRKVLQEAALLAYEARDAELFALVAEVLFKLLHHSSSS
# B5: il2ra_site2_3nfp_sap_12_mot_968ffe68aa11d68c04d2634bf871f227_0001_1_af2_000000211_0001_1_14_H_._HHH_b2_04736_af2_0001_0000200012_0000001_1_0001 (protein)
# chain: SSSSSDEEQERVEELLEEAKEIEDEEEVRKLLHEASRLAMEADDLELYELVAKFYKELHSSSSSS
# B6: il2ra_site2_2erj_sap_23_mot_HHH_b2_01204_af2_000000019_0001_19_34_H_._HHH_b2_08335_0001_0001100036_0000001_0_0001 (protein)
# chain: SSSSDELRRLYEILVKLLRLLFEGDEEEVERLLEELERLAEELNSDTAKAALETLRRKLRSSSSS
# B7: il2ra_site1_1z92_sap_10_mot_HHH_b1_08504_af2_000000168_0001_42_54_H_._HHH_b2_05427_0001_0000300019_0000001_0_0001 (protein)
# chain: SSSSNEKVLRRIVEMLVKAAGLSEEAEEILREELEELLREGVDAEEIIKILDELARRLAENSSSS
# B8: il2ra_site1_3nfp_normal_mot_1cd86ef9f1587ae5d14d35bbbd8e7f1d_0001_1_000000087_0001_34_49_H_._HHH_b2_06542_af2_0001_0000200009_0000001_0_af2pred_0001_af2pred_swa … (protein)
# chain: SSSSSEEAHRLSEEALEAAHRGDFEEAKKLAEEALKIAEEEGDERLAEYIEKLLEQIEKTGSSSS
# B9: il2ra_site2_3nfp_sap_6_mot_HHH_b2_00323_af2_000000120_0001_23_39_H_._e55687cc0594206fc50f821845281bce_0001_af2_0001_0000100007_0000001_0_0001 (protein)
# chain: GPEEKLEHAAKARGDPRFAIFALLADLVYELGDPEEAAELLREVIERLFNVPPEEAERLLREAAN
# B10: il2ra_site2_2erj_sap_16_mot_HHH_b1_06777_000000153_0001_1_20_H_._HHH_b1_07248_0001_0001300025_0000001_0_0001 (protein)
# chain: SSSSSEDEKEVEELLEEAKKLYEEGDLHEVFRLIVEALHIASRNNDDELQRLVMKVVEEISSSSS
# B11: il2ra_site2_2erj_sap_27_mot_HHH_b1_04373_af2_000000118_0001_18_33_H_._8c87799e5e14fa72b7a696e58182a465_0001_0001_0000400035_0000001_0_0001_af2pred_0001_1_af2pre … (protein)
# chain: SSSDEEELKERLEELIEKLAEELGLDEREILAIKVFIRAAIELGASEEELRLAVESAVKAASSSS
# B12: il2ra_site2_3nfp_sap_14_mot_HHH_b2_08245_000000023_0001_41_55_H_._0a42daeb3aece44cdc522fd0f5bebdbb_0001_0001_0000500021_0000001_0_0001 (protein)
# chain: SSSSDIEERLEELKREIEELIEEGDVHEAAQLAAELSELAAEYGDEEAFELVVEVMELAQSSSSS
# B13: il2ra_site1_3nfp_sap_23_mot_1cd86ef9f1587ae5d14d35bbbd8e7f1d_0001_1_000000087_0001_34_49_H_._HHH_b2_03047_0001_0000500030_0000001_0_0001 (protein)
# chain: SREDIEKVFRLLAKNPEEAVRLLRELVEETGDPELKRALELLEEALETNDPRLAKEASRILIRLA
# B14: il2ra_site2_3nfp_sap_21_mot_HHH_b1_03230_af2_000000282_0001_23_39_H_._HHH_b2_05509_af2_0001_0001500013_0000001_0_0001 (protein)
# chain: SSSSSEELEELLRELEELLKRGDEEEFRKLFAEIAHLAFRLNDPEIFYRVAELALEFVQRRSSSS
# B15: il2ra_site1_1z92_sap_19_mot_HHH_b1_07036_000000095_0001_39_53_H_._HHH_b2_03837_0001_0000100006_0000001_0_0001 (protein)
# chain: SRLERDVELILELAGTPERAVRFVERFAEQLLENGDPESAEELLEVAAKILGDPRLEELLEKIRK
# B16: il2ra_site2_3nfp_normal_mot_HHH_b1_02826_000000151_0001_21_38_H_._c92f2f267e3140931cbaf1d223b4767f_0001_1_af2_0001_0000300015_0000001_0_af2pred_0001_af2pred (protein)
# chain: TLAEEVLELLEEGDEEEAEKAVERLVKAARRLGAPPEDAEFWVKLLLERAGIPPELVEKLLEALR
# B17: il2ra_site1_3nfp_normal_mot_0eddeacbb14b769e73e254714f31e2f9_0001_af2_000000052_0001_37_51_H_._HHH_b2_04962_0001_0000400014_0000001_0 (protein)
# chain: SSSSDTEEYAEEVAERLRELIQEGDFEEARRLAQEASKFVKERRNTEAADILYEVLREIISSSSS
# B18: il2ra_site1_1z92_normal_mot_HHH_b1_04602_000000153_0001_1_19_H_._HHH_b2_03060_af2_0001_0000100018_0000001_0 (protein)
# chain: SSSDRKEEAFVRVVVKALVEMANLSEEQEEKLEELARELLERGVDELEILKELDRLAAELESSSS
# B19: il2ra_site2_2erj_sap_19_mot_HHH_b2_01204_af2_000000051_0001_19_34_H_._HHH_b1_06791_0001_0000100006_0000001_0_0001 (protein)
# chain: DEVEELEKLLREAATLAWRRNDFELYNLLSEAFRRLAQVLVENDEEEKEKANKFAKEVIEEAESS
# B20: il2ra_site1_1z92_sap_11_mot_HHH_b1_04488_000000139_0001_42_58_H_._HHH_b2_08307_af2_0001_0000200009_0000001_0_0001_af2pred_0001_af2pred_1_swapped (protein)
# chain: DEAHRLDLEQARKQGLPPEKAVRAVIRAIAQIERVPPEEAAEILLEVLEKLGDPELAEIAEELTP
# B21: il2ra_site1_1z92_normal_mot_HHH_b1_01565_af2_000000147_0001_1_17_H_._HHH_b2_00438_0001_0000200025_0000001_0 (protein)
# chain: SSSSSSEVEVAAKAVAQAAGLSEEQEEELRELARELLEEGYSELEILKILDRRALELNESSSSSS
# B22: il2ra_site1_2b5i_normal_mot_HHH_b2_04910_000000118_0001_1_19_H_._HHH_b1_07536_0001_0000100003_0000001_0 (protein)
# chain: SSSSSSSEEARELFEEADELDRRGDPEEAERVLREAEEIAREAGSRALLRVIEAALKQAESSSSS
# B23: il2ra_site2_2erj_sap_27_mot_HHH_b1_08185_000000106_0001_41_55_H_._HHH_b1_07526_af2_0001_0000800010_0000001_0_0001 (protein)
# chain: SSSSDWLEEAYELANEAMRLIEERDDEELEKVLELLEEIAEKANNPSIEEIVESLRRSFKSSSSS
# B24: il2ra_site1_1z92_sap_14_mot_HHH_b1_07537_af2_000000083_0001_43_56_H_._08167eb7329a42484cd5255d2447d7e3_0001_0001_0000200038_0000001_0_0001_af2pred_0001_af2pred (protein)
# chain: DEEVEKAIEAAEEAGFSPENIVKALLAALARHLKVPPEEALQFLLEVLRRLGDPELVEIVEELLR
# Biological target: il2ra, P01589
# Experiment: yeast display titration
row,Binder,apparent Kd
1,B1,inactive: no binding seen
2,B2,inactive: no binding seen
3,B3,inactive: no binding seen
4,B4,inactive: no binding seen
5,B5,inactive: no binding seen
6,B6,inactive: > 2.44 µM
7,B7,inactive: no binding seen
8,B8,inactive: no binding seen
9,B9,inactive: no binding seen
10,B10,inactive: no binding seen
11,B11,inactive: no binding seen
12,B12,inactive: no binding seen
13,B13,inactive: no binding seen
14,B14,inactive: no binding seen
15,B15,inactive: no binding seen
16,B16,inactive: no binding seen
17,B17,inactive: no binding seen
18,B18,inactive: no binding seen
19,B19,inactive: no binding seen
20,B20,inactive: no binding seen
21,B21,inactive: no binding seen
22,B22,inactive: no binding seen
23,B23,inactive: no binding seen
24,B24,inactive: no binding seen

# Rewritten with bars between the fields: entries from further up.
row | Binder | apparent Kd
6 | B6 | inactive: > 2.44 µM
7 | B7 | inactive: no binding seen
16 | B16 | inactive: no binding seen
18 | B18 | inactive: no binding seen
19 | B19 | inactive: no binding seen
